Measured values published in the supplement of paper PMC10849652.
This is one part of the list.

Amino acid sequences for entries named in this document (tags omitted). A change or cut given only in a name is not applied to a line headed by its entry.
UniProt Q96QU6: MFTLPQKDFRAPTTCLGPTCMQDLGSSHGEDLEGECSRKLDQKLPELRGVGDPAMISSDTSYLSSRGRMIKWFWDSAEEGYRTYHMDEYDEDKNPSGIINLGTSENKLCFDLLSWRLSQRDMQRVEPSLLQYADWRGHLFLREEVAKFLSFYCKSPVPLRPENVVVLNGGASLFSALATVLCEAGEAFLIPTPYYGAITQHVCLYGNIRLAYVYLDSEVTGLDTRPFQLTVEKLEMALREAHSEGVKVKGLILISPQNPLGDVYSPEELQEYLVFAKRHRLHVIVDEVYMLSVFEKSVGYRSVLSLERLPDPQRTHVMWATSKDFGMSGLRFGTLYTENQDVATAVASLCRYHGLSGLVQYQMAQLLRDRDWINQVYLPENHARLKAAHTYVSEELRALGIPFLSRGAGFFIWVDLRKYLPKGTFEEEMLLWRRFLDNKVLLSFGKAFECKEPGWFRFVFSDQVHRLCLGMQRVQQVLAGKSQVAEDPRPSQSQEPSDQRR
UniProt Q9P1F3: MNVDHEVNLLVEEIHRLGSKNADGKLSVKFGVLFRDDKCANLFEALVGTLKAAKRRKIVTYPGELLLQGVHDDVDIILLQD
UniProt P42684, whole entry, looked up: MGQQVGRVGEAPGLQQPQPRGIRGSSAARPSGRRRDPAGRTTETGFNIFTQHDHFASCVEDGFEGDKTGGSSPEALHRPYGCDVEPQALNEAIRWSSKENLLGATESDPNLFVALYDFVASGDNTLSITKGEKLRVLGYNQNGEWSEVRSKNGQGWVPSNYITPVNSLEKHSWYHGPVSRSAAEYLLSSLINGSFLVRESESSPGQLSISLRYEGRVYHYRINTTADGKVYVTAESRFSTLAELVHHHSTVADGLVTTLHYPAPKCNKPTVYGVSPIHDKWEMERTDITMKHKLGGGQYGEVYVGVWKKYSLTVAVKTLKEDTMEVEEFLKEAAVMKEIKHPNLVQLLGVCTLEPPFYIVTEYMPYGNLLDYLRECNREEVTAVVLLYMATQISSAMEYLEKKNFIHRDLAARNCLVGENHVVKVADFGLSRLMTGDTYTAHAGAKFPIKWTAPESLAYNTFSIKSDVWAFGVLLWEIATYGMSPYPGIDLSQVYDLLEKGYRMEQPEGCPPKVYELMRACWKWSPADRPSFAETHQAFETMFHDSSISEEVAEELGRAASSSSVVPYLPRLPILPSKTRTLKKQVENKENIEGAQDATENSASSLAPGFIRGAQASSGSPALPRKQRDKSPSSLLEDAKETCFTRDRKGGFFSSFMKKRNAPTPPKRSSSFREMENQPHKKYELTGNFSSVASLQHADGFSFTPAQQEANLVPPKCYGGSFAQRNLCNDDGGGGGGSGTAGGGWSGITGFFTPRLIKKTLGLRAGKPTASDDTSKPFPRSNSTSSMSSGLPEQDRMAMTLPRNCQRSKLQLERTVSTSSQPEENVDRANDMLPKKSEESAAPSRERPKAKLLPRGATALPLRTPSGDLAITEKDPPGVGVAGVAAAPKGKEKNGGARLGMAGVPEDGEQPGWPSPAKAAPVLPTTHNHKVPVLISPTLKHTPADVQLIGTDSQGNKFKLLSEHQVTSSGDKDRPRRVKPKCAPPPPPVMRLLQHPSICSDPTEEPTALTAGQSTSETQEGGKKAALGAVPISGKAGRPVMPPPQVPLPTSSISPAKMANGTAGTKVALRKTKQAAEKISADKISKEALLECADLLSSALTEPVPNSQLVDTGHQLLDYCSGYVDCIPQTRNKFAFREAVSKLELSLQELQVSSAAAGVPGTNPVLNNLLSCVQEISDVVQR

Legend:
Assay in all cases: log2 fold change, soluble protein after heating vs DMSO (PISA); higher = thermal stabilisation; K562 cells, 10 uM, 30 min; active = over 0.2 and 3.5 SD of the protein, either way, in both replicates (recomputed)
[1] = compound: NCC(=O)Nc1ccc(-n2nc(C(F)(F)F)cc2-c2ccc3c(ccc4ccccc43)c2)cc1
How it was run: (§1)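 K562 cells at 2×10^6 cells/mL were given 10 μM compound for 30 min. Aliquots then went through 3 min of heating across 48°C-58°C, were pooled, and were extracted in PBS with 0.5% NP-40 at 4°C, and the supernatant after 21,000xg for 90 min was quantified by TMTpro 16plex LC-MS/MS with channel sums equalised. Thermal stability relative to control samples, from duplicates, is given as log2 fold change.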

vorinostat = compound: O=C(CCCCCCC(=O)Nc1ccccc1)NO [vorinostat]
How it was run: as §1

[2] = compound: NC1(c2ccc(-c3nc4ccn5c(=O)[nH]nc5c4cc3-c3ccccc3)cc2)CCC1
How it was run: as §1

silmitasertib = compound: O=C(O)c1ccc2c(c1)nc(Nc1cccc(Cl)c1)c1ccncc12 [silmitasertib]
How it was run: as §1

citarinostat = compound: O=C(CCCCCCNC(=O)c1cnc(N(c2ccccc2)c2ccccc2Cl)nc1)NO [citarinostat]
How it was run: as §1

[3] = compound: O=C1NC(=O)C(c2cnc3ccccn23)=C1c1cn2c3c(cc(F)cc13)CN(C(=O)N1CCCCC1)CC2
How it was run: as §1

[4] = compound: c1cc(OCCN2CCCCC2)cc(-c2n[nH]c3ccc(-c4nnc[nH]4)cc23)c1
How it was run: as §1

entospletinib = compound: c1cn2cc(-c3ccc4cn[nH]c4c3)nc(Nc3ccc(N4CCOCC4)cc3)c2n1 [entospletinib]
How it was run: as §1

[5] = compound: NC(=O)Nc1cc(-c2cccc(F)c2)sc1C(=O)N[C@H]1CCCNC1
How it was run: as §1

entinostat = compound: Nc1ccccc1NC(=O)c1ccc(CNC(=O)OCc2cccnc2)cc1 [entinostat]
How it was run: as §1

Measured: log2 fold change

ACTR3B (UniProt Q9P1U1)
inactive: [1] -0.217 | vorinostat -0.067

ACTB, A0A2R8YGF8
inactive: [2] 0.416 | silmitasertib -0.083

ACCS (UniProt Q96QU6)
inactive: [2] 0.008 | vorinostat 0.009 | citarinostat 0.049 | silmitasertib -0.047 | [3] 0.048 | [4] 0.06 | entospletinib -0.066

ABRACL (UniProt Q9P1F3)
inactive: [5] -0.043 | [2] -0.002 | entinostat 0.036 | silmitasertib -0.035

ABL2 (UniProt P42684)
inactive: [5] -0.463 | entinostat -0.243 | [3] -0.088
